Measured values as given in paper PMC8060413.
Results are given in words; binding and its absence hold for the method and conditions named. Some binding calls cover weakened binding; strength is not graded here.

Molecular target: T1, Ssz1 (wild type, subunit of wt RAC) (yeast) (UniProt P38788)
T1 sequence: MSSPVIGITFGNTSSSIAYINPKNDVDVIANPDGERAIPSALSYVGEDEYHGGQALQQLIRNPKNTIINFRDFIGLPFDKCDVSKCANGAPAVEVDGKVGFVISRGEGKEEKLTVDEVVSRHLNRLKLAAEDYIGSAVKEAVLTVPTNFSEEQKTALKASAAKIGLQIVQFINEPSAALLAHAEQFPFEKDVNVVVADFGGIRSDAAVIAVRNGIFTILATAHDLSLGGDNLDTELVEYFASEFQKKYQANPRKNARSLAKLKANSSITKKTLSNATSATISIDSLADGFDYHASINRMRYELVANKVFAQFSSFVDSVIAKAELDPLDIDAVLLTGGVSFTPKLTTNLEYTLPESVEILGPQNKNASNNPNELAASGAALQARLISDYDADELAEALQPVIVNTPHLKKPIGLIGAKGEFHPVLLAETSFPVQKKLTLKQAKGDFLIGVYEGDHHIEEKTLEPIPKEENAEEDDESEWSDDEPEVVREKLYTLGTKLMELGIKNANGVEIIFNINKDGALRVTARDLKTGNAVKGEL
Test: co-purification (Ni-IDA affinity, anion exchange, size exclusion); Ssz1 and Zuo1 co-expressed in E. coli; complex held on Ni-IDA by His6-SUMO on Ssz1, washed with 100 mM and 1 M KAc, eluted with 300 mM imidazole; His6-SUMO removed by Ulp1; then ResourceQ and HiLoad Superdex 200 in 40 mM HEPES pH 7.4, 100 mM KAc, 5 mM MgCl2, 5% glycerol

binding: binds
B1: Zuo1 (wild type, subunit of wt RAC) (protein, UniProt P32527 1-433)
chain: MFSLPTLTSDITVEVNSSATKTPFVRRPVEPVGKFFLQHAQRTLRNHTWSEFERIEAEKNVKTVDESNVDPDELLFDTELADEDLLTHDARDWKTADLYAAMGLSKLRFRATESQIIKAHRKQVVKYHPDKQSAAGGSLDQDGFFKIIQKAFETLTDSNKRAQYDSCDFVADVPPPKKGTDYDFYEAWGPVFEAEARFSKKTPIPSLGNKDSSKKEVEQFYAFWHRFDSWRTFEFLDEDVPDDSSNRDHKRYIERKNKAARDKKKTADNARLVKLVERAVSEDPRIKMFKEEEKKEKERRKWEREAGARAEAEAKAKAEAEAKAKAESEAKANASAKADKKKAKEAAKAAKKKNKRAIRNSAKEADYFGDADKATTIDEQVGLIVDSLNDEELVSTADKIKANAAGAKEVLKESAKTIVDSGKLPSSLLSYFV
